About 3,700 (7%) of roughly 53,000 sequences were called active.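 The calls were made as follows: active = gene knockdowns whose robust z-score for IL-1 alpha signal is at least 2 or at most -2, so actives lie on both sides; inactive = the rest.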 This is one part of the list.
Assay: Components of the Cytosolic LPS Sensing Pathway: Gene Identification via Genome-wide siRNA Screen
Conditions: RAW264.7 macrophages, IL-1a HTRF, actives lie on both sides, screened at 100 nM (by protocol), cells primed 5 h with Pam3CSK4 first
From the text: Non-canonical inflammasome activation by cytosolic LPS is a critical component of the host response to Gram-negative bacterial infection, however we lack a comprehensive understanding of the cellular processes that control this pathway. Here we describe a genome-wide siRNA screen to identify genes regulating the mouse macrophage IL-1 alpha response to cytosolic LPS.
RAW264.7 cells were maintained in complete DMEM media, comprising DMEM with 4.5 g/L glucose, 10% FBS (Gemini Bio-Products, West Sacramento, CA), 2 mM Glutamine (Lonza) and 20 mM HEPES (Lonza), hereafter complete DMEM.
The RNAi screen was conducted in 384-well format using the Ambion Silencer Mouse Genome siRNA Library (#4391425), which consists of three unique, nonoverlapping, nonpooled siRNAs for each of 17,000 gene targets. siRNA reagents ([…]) were stamped into 384-well white flat-bottom microplates (Corning, 3570) using a Velocity11 VPrep liquid handling system (Agilent) integrated into a BioCel robotic platform (Agilent) in columns 1-22, leaving columns 23-24 empty for negative (Ambion, Negative control #1) and positive (mouse Casp4) controls, respectively. The median value of each plate's negative control column was used to normalize sample wells, and the positive control was used to assess transfection efficiency and assay performance.
Lipofectamine RNAiMAX Transfection Reagent ([…]; Invitrogen) was added in […] serum-free, antibiotic-free media to plate wells using a Thermo Scientific Matrix WellMate and Microplate Stacker. Plates were incubated for 45 min at room temperature to allow for the sufficient formation of siRNA-lipid complexes. Cells were seeded at a density of 1x10^4 cells per well in 20 microL media containing 20% (vol/vol) FBS without antibiotics. The final concentration of siRNA in each well was 100 nM. Cells were cultured for 48h at 37 degrees C in 5% CO2 before addition of […] of TLR ligand Pam3CSK4 for 5 hours. The medium was then removed, replaced with […] growth media and cell were transfected with […] of LipidA and TransIT-TKO (Mirus) for 24 hour. At the end of the LipidA treatment, […] of supernatant was transferred to a 384 Greiner Bio-one non-binding low volume plate and […] of IL-1a HTRF reagent (Cisbio, 62MIL1APEH) was added and incubated at room temperature overnight. The plates were read on an EnVision plate reader (PerkinElmer). Cell viability was measured by adding 20ul Cell Titer Glo to the original plate and running a luminescence read on the EnVision. The quantified IL-1a signal for each siRNA gene-targeted well was divided by the median of the negative control wells and multiplied by 100 to achieve a negative control normalized value for each well/siRNA. This normalized value was then used to generate a robust z-score by first taking the log of each value and then by subtracting the median and dividing by the […].

| Sequence | z-score |
| --- | --- |
| GCAUCUAUCAAUAAGGAGUTT against Adgrl1 | inactive: 0.137 |
| CAUUGAAUUCCUGCUCUCCTT against Defa-rs2 | inactive: 0.227 |
| GCUAUACACUUACUAGAAUTT against Adgrf1 | inactive: 1.55 |
| GGUUACGUGAGGAUAAAAUTT against Slc38a8 | inactive: -0.91 |
| GGUUCCAUAGCAGACAAAATT against Mrpl24 | inactive: 0.513 |
| GGAAAAAAUGGAACCAUUGTT against Rpa3 | inactive: 0.342 |
| GCAUAAAUUUCAAGAGCGCTT against Gigyf1 | inactive: -0.243 |
| GGAGCAGCUAGACUUCUUUTT against Abhd8 | inactive: -0.434 |
| GCAAAACACACUGAUGGUGTT against Stx16 | inactive: 0.835 |
| CCGUACAAGAAAAAGUCGUTT against Srrm1 | inactive: 1.17 |
| GCGAAAACUUGGGAUAUUUTT against Mtmr1 | inactive: -0.689 |
| GGAAAAUGUUCAUCUCUCATT against Mboat2 | inactive: -0.25 |
| GGAAAGAUCUACGAGAUCUTT against Unc5a | inactive: 1.04 |
| GGACAAGAGAACAACUAGUTT against Mrtfb | inactive: 0.0162 |
| CGCAUCAUAAUGAUUGUGATT against Matn2 | inactive: -0.269 |
| GGGAUACGUUAAUUGUAACTT against Slc6a5 | inactive: 0.157 |
| GGAGUCGAGAGAGCAUUGGTT against Slc30a7 | inactive: -0.48 |
| CGGGAGAAAAUUUUAAAGGTT against Qsox2 | inactive: 0.109 |
| GGAGAUGGCACAGUCAGUCTT against Slc22a8 | inactive: -0.338 |
| CCUCCCAGUACACUUGAAATT against Cox7a1 | inactive: 0.0752 |
| GCCUCGUUGACUCCACUAUTT against Rab3ip | inactive: -0.0482 |
| GCAUUGGACCAGUCCAGAUTT against Nr6a1 | inactive: 0.638 |

| Sequence | z-score |
| --- | --- |
| GGUAUACCAUUCUCAUGAGTT against Olfr332 | inactive: -0.802 |
| GCCCAAAAGUGGUUUCCAATT against Rab11fip2 | inactive: 1 |
| GGAGCAAGAUCAAAUAUGATT against Cflar | inactive: -1.08 |
| GUCCUGCUUUCUCUCAUCUTT against Olfr686 | inactive: 1.14 |
| CCUGAUACCACGACAAGAATT against Cd55b | inactive: -0.741 |
| GCCAGAGACAAGUAUCAGCTT against Egln2 | inactive: 0.989 |
| GCCGUGGAUCGAAUAAUUCTT against Coq7 | inactive: -1.03 |
| GGACAGAUAGUCCUUCGCUTT against Slc7a8 | inactive: -0.778 |
| GCAUCAUUAUCUUACCAACTT against Olfr826 | inactive: -0.994 |
| GGCAUAGCAUGAAUGGACGTT against Cript | inactive: -0.302 |
| GGUCUACCAUUUCACCUUGTT against Cops4 | inactive: 1.19 |
| CCCUUCUUUCAAGAAUCUUTT against Olfr325 | inactive: 0.293 |
| CCAAGUUGAGAAAUUUCUGTT against Cndp1 | inactive: -0.127 |
| GGAACUCGGAAUUUCUGCCTT against Csf2 | inactive: 0.181 |
| CGUGCACUGACCAACCAUATT against Dcxr | inactive: 0.055 |
| GGUCUUACCAACAGAACCCTT against Rad51ap1 | inactive: 1 |
| CCCUUAAUGUUUCUAUGGCTT against Klf5 | inactive: -0.523 |
| GGUGACUGGUUUGUUGCUUTT against Pstk | inactive: -1.39 |
| CCAGCAAUGUACCAGUUCATT against Micos13 | active: -2.02 |
| GGAAGUUUUGCUAUUACACTT against Ubap1 | inactive: 1.85 |
| CCUAUGUCAAAAAGGUUCGTT against Slc4a2 | inactive: 1.19 |
| GGAAAACGGAGAUUUGGAGTT against Ess2 | inactive: 0.649 |

| Sequence | z-score |
| --- | --- |
| GGAUCAAUGUGGUACCUAUTT against Sf3a1 | active: -2.79 |
| GGAAAACCUAAGGUUUAAUTT against Marchf10 | inactive: 1.05 |
| GGGACAUCAUGUGAAGGACTT against Timm50 | inactive: -1.83 |
| GCCUUUUAUUUGACUCAUATT against Zfp346 | inactive: -0.511 |
| GCACAUUCAUAGGAGUACCTT against Vmn1r237 | inactive: 0.371 |
| GGAAGACACUCCUCUGCUCTT against Oca2 | inactive: 1.63 |
| GGUCAAAUGAGCAGAAUAATT against Foxi1 | inactive: -0.256 |
| GGUUCAACAUGAAAAUGAUTT against Lingo2 | inactive: -0.251 |
| GGAUUUACAGAAGUGAAGGTT against Cald1 | inactive: 0.547 |
| GGUAAUACCACCUCACCUUTT against Fam214b | inactive: -0.0713 |
| CCCUUGUCUCAUGUCAAGGTT against Eras | inactive: -1.48 |
| AAAAGAUGCAUGUCUCCUUTT against Hbq1a | inactive: -1.76 |
| GGCGCAGUACUAAAGACAGTT against Pbld2 | inactive: 1.55 |
| CGUAUCAAACAGGAAAUGGTT against Arid5b | inactive: -0.0746 |
| GGUAAUUGUUGUUUUUGGGTT against Npy4r | inactive: 0.133 |
| GAAACUAUGGCUGAAAAUGTT against Klk1 | inactive: -0.838 |
| GGAGCAAUUCAAAUUCAAATT against Psme3ip1 | inactive: 1.26 |
| CCUGCAUGACGGAAUUCUUTT against Acacb | inactive: 1.19 |
| GGCUGUGAAGUCUAAAACUTT against Thbs4 | inactive: 0.703 |
| CUCUAAGAAACAUGGUGGCTT against Sod1 | inactive: -0.304 |
| GGUUUAUGAGCUCUACGCCTT against Tmem11 | inactive: -0.843 |
| CCAUUGACUUACUUCUAAGTT against Gimap6 | inactive: 0.58 |

4 records drawn at random from the list so far:

| Sequence | z-score |
| --- | --- |
| GCCUCGUUGACUCCACUAUTT against Rab3ip | inactive: -0.0482 |
| GGUAUACCAUUCUCAUGAGTT against Olfr332 | inactive: -0.802 |
| GGAAAAAAUGGAACCAUUGTT against Rpa3 | inactive: 0.342 |
| GGAUCAAUGUGGUACCUAUTT against Sf3a1 | active: -2.79 |

Remaining list, next part

| Sequence | z-score |
| --- | --- |
| CCUUCCAACUCUUCUCCUCTT against H2-T3 | inactive: 0.915 |
| CGAGAUGAAAUAUACAGAUTT against Trat1 | inactive: 1.12 |
| GCAACAACCGCACAUCUCATT against Cdc26 | inactive: 1.33 |
| GCUAAUAUACCUCUCAAAATT against Zfp946 | inactive: 1.61 |
| GGCUAUUAUUGAGAGUUCATT against Tmem168 | inactive: 0.139 |
| GCCGUCUUAACACCUAUGGTT against Olfr690 | inactive: -0.21 |
| GCCACUUUUGUCAAGGAAATT against Supt16 | inactive: 0.183 |
| GCACUCCUUCGAUUUAAUCTT against Lpcat4 | inactive: -0.949 |
| GGAUGCUUUAACUUCAAACTT against Crebrf | active: 2.56 |
| GGGCCUUAGGCUAUUCCUATT against Otub2 | inactive: 0.156 |
| GGAUAUCAUUUCAUCUUGUTT against H3c7 | inactive: 0.405 |
| GGACCAGCACCAUUUCCUATT against Cramp1l | inactive: -0.675 |
| GGACUGGGAACUUCUUGACTT against B4galnt4 | inactive: 0.123 |
| GGACAACGAUAGCUAACCUTT against Tmem63a | inactive: 0.453 |
| GCCUCAACUCAAGCCUUCATT against Olfr525 | inactive: 0.0506 |
| GGAUGGAUAUCACAUAGAATT against Fcrls | inactive: 1.81 |
| GGAAAGAUGUGGUCCAGCUTT against Sirt3 | inactive: 0.373 |
| GGAUACCUGAAAAUUGAUATT against Npr1 | inactive: -0.667 |
| GGAGUUUUUAUUCAAGGAATT against Slc35b3 | inactive: -1.07 |
| CCGGAAAUAAAGGCGGAGUTT against Cd99 | inactive: 0.25 |
| GGCAGAUAGUACUGAUCAATT against Mucl2 | inactive: 0.16 |
| GCCUAAAAAGCUUCUUUAGTT against Amer1 | inactive: 0.15 |

Shown with each value named: entries from further up
GGAACUCGGAAUUUCUGCCTT against Csf2
  z-score: inactive: 0.181
CGUGCACUGACCAACCAUATT against Dcxr
  z-score: inactive: 0.055
GGUCUUACCAACAGAACCCTT against Rad51ap1
  z-score: inactive: 1

Going on with the list.

| Sequence | z-score |
| --- | --- |
| GGAUGAGGACACCAUUGAUTT against Sumo3 | inactive: 0.723 |
| GAUUUCUAUACAGCCUAUCTT against Olfr799 | inactive: 0.312 |
| GCAGAUUUGAAUUCAGACATT against Mup4 | inactive: 0.577 |
| GGAAACUCCAACUUGUUUGTT against Ankra2 | inactive: 1.18 |
| GGACUUCCACUCACGUUACTT against Ppp2r3d | inactive: 0.499 |
| CGGUGGUGUGAAGCCCAAUTT against Pm20d2 | inactive: 0.348 |
| GGAGGUAGCCCUUCAGAUGTT against Igdcc3 | inactive: 1.1 |
| GCUCGAUGGAUUGUAAUCUTT against Efcab11 | inactive: -0.148 |
| CCACCUCCUCUCGAUACAATT against Zfp36 | inactive: 0.993 |
| GGCAAAGCUGUCUUAGAGGTT against Mettl23 | inactive: -1.35 |
| GGCCUCAUCUUGAAUAUUUTT against Hsd17b3 | inactive: -1 |
| GGGAGAACCGGAUGAGAUUTT against Itpa | inactive: -0.871 |
| GACCGAGGUCAACAGAGUGTT against Slc6a20b | inactive: 0.124 |
| GGAUUCCAGAGAAAUGUGATT against Lrrc66 | active: -2.62 |
| GGGUCAUCUUACCACAGUUTT against Nptxr | inactive: -1 |
| CCUGGUACAUCUCUGUUACTT against Olfr449 | inactive: 1.53 |
| GGUUUCAUCCUGGUGUAUATT against Rap2c | inactive: -1.33 |
| CCUUCUAGUUUGCCUCUGGTT against Olfr877 | inactive: 0.332 |
| CCAAGUCCAUUUCAUACUCTT against Ormdl3 | inactive: 1.94 |

Reference: PubChem BioAssay AID1508600 (Functional Genomics Laboratory (NCATS/FGL), 2020)
